Experimental data published in WO2008154439A1.
Substitutions are numbered along the chain they refer to. These are yes or no findings as the source states them, for the method shown. Some entries that bind do so weakly or less than the wild type.

Chains of the proteins cited; added tags and fusions are not shown. Residues count along the entry.
UniProt O14763, residues 56-182: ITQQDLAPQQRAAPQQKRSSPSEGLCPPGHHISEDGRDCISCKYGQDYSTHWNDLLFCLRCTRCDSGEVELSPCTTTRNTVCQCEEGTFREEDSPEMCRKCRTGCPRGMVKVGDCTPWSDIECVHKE

B1: Fab' DR106-2 (Fab, V domains shown)
VH: EVQLVQSGAEVKKPGASVKVSCKASGYTFTSYTMHWVRQAPGQGLEWMGWIYPGGGYTKYAQKFKGRVTMTGDTSTSTVYMELSSLRSEDTAVYYCARHEEGIYFDKWGQGTLVTVSS
VL: DIVMTQSPDSLAASLGEKATINCKSSQSFLGSSNGKNYVAWYQQKPGQPPKLLIYWASMRVSGVPDRFSGSGSGTDFTLTISSLQAEDVAVYYCQQHYITPFTFGQGTKLEIK
B2: Fab' DR114-1 (Fab, V domains shown)
VH: B1 VH
VL: DIQLTQSPSSLSASVGDRVTITCRASQDVSGALAWYQQKPGQPPKLLIYWASTRESGVPDRFSGSGSGTDFTLTISSLQAEDVAVYYCQQHYITPFTFGQGTKLEIK
B3: Fab' DR112-1 (Fab, V domains shown)
VH: B1 VH
VL: B1 VL with K18R, M59T, V61E

molecular target: recombinant DR5 antigen (human) (UniProt O14763); assay: bio-layer interferometry (ForteBio Octet), biotinylated antigen on neutravidin sensors

| Binder | binding |
| --- | --- |
| B1 | binds |
| B2 | binds |
| B3 | binds |
